# Laboratory results from US20250197356A1, “METHOD FOR SYNTHESIZING NUCIFERINE OR DERIVATIVE THEREOF, DERIVATIVE OF NUCIFERINE AND USE THEREOF” (HUAQIAO UNIVERSITY, priority 2022, published 2025).
# At least one structure is not confirmed: it was looked up by name or label, or the drawing left a doubt.
# Test system: hyperlipidemia rats
# Test: Liver appearance and HE histopathological observation in hyperlipidemia rats
# Type: in vivo, SD rats
# Settings: compared with the model group, 20 mg/(kg d)
# From the text: Animals: 54 SPF-grade SD rats, weighing 120±10 g, provided by Laboratory Animal Business Department, Shanghai Family Planning Research Institute, China, Animal license number: SCXK(Shanghai)2018-0006.
# Modeling scheme: 54 adult rats of 120±10 g were selected and fed adaptively for three days. They were then randomly divided to 6 groups, 9 animals for each group. They were blank control group, model group, positive control group, nuciferine group, and nuciferine structural modification group. The blank control group was fed with normal diet. […] The feeding and modeling time was 5 weeks.
# Liver tissue sample collection: the rats were killed by dislocation, and the liver was taken out immediately after death, which was observed by naked eye to find out whether there was abnormal color and lesions, and was then rinsed with ice normal saline. The left lobe of the liver was quickly cut into small pieces and fixed in 10% formaldehyde overnight for sectioning. The tissue of the right lobe of the liver was quickly wrapped in tin box and stored at −80° C. for later use.
smiles,measurement,value
"CCC(C)(C)C(=O)O[C@H]1C[C@@H](C)C=C2C=C[C@H](C)[C@H](CC[C@@H]3C[C@@H](O)CC(=O)O3)[C@H]21 [Simvastatin, simvastatin, reference compound]","Liver appearance (photographs, FIG. 8)",improved to different degrees
